Among the data in publication PMC11428915 are binding values, retold here.

Amino acid sequences for entries named in this document (tags omitted).
UniProt O60637: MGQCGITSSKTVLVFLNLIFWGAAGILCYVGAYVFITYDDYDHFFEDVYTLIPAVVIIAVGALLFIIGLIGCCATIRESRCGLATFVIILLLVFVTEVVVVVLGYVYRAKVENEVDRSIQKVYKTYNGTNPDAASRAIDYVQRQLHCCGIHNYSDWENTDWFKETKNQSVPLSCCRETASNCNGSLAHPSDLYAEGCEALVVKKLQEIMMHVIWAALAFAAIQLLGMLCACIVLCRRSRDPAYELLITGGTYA
UniProt P62491: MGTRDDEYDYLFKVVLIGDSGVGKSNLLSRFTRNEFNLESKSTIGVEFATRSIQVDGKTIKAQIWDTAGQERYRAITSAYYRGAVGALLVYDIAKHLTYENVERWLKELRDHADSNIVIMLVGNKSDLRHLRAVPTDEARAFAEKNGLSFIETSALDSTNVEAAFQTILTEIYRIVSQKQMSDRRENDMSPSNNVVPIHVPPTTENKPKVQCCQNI

The experiment has as its target TSPAN3 as used for the mass spectrometric analysis (construct not stated) (UniProt O60637). The experiment can be described thus: affinity purification with mass spectrometry; coimmunoprecipitation and mass spectrometric assay, performed as previously described (ref. 22); bait construct and cells not told.

Results are given in words; binding and its absence hold for the method and conditions named. In cells and extracts the contact can be indirect. Here binding means that the protein was enriched with, or labelled near, the bait; the list need not be complete.

With “Ras-related protein Rab-11a, endogenous in A549 cells (from UniProt P62491 1-216)”, the binding result is “binds”.
